# Publication PMC7396582
# Results are given in words; binding and its absence hold for the method and conditions named. In cells and extracts the contact can be indirect. These calls come from enrichment with a bait or labelling near it, and not all partners need be listed.
# T1: M6a-loops (rat) (UniProt Q812E9)
# T1 sequence (chain, biotin on the BAP (sec-BirA from the pBig plasmid)): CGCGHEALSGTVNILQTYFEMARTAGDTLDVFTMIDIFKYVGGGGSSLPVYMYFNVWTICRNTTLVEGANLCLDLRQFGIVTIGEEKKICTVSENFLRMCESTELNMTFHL
# Biological target: T1, M6a-loops (rat)
# Experiment: affinity purification with mass spectrometry; M6a-loops (10-25 ug, from concentrated supernatant) held by anti-SV5-mAb cross-linked to protein A magnetic beads (1 h, room temperature); incubated with clarified pooled rat hippocampi extract (P14, P21, P30; 1% Triton X-100 in PBS; 200-350 ug) overnight at 4 C; washed three times with PBS-T; eluted in SDS buffer with DTT; TMT/MS; mock: M6a-loops with protein A beads without anti-SV5; three co-IPs with two replicates each
row,binding,Binder
1,binds,"Thy1 (protein, UniProt P01830 20-130) QRVISLTACLVNQNLRLDCRHENNTNLPIQHEFSLTREKKKHVLSGTLGVPEHTYRSRVNLFSDRFIKVLTLANFTTKDEGDYMCELRVSGQNPTSSNKTINVIRDKLVKC"
2,binds,"proteolipid protein (protein, UniProt P60203 1-277) MGLLECCARCLVGAPFASLVATGLCFFGVALFCGCGHEALTGTEKLIETYFSKNYQDYEYLINVIHAFQYVIYGTASFFFLYGALLLAEGFYTTGAVRQIFGDYKTTICGKGLSATVTGGQKGRGSRGQHQAHSLERVCHCLGKWLGHPDKFVGITYALTVVWLLVFACSAVPVYIYFNTWTTCQSIAFPSKTSASIGSLCADARMYGVLPWNAFPGKVCGSNLLSICKTAEFQMTFHLFIAAFVGAAATLVSLLTFMIAATYNFAVLKLMGRGTKF"
3,binds,"Syngr3 (protein, UniProt D4ABK1 1-319) MSPFPTLSYGGRASGKDQGGGAGLRPWRMDLVGGAGSAPPRAPPPQPTRAPGRRRQRQQHPQHQQPQHQPWEVSGRAGRWDKRTEGTGPAMEGASFGAGRAGAAFDPVSFAQRPQTLLRVVSWVFSIAVFGPIVNEGYVNSDSGPELRCVFNGNAGACRFGVVLGLGAFIACVAFLLLDVRFQQISSVRDRRRAVLLDLGFSGVWSFLWFVGFCFLTNQWQRTAPGPGTAQAGDAARAAIAFSFFSILSWVALTVKALQRFRLGTDMSLFATDQLGTGAAQAYPGYPVGSGVEGTETYQSPPFTETLDTSPKGYQVPAY"

# The remaining lines, values behind:
row,Binder,binding
1,"Cntnap1 (protein, UniProt P97846 21-1381) WGYYGCNEELVGPLYARSLGASSYYGLFTTARFARLHGISGWSPRIGDPNPWLQIDLMKKHRIRAVATQGAFNSWDWVTRYMLLYGDRVDSWTPFYQQGHNATFFGNVNDSAVVRHDLHYHFTARYIRIVPLAWNPRGKIGLRLGIYGCPYTSNILYFDGDDAISYRFQRGASQSLWDVFAFSFKTEEKDGLLLHTEGSQGDYVTLELQGAHLLLHMSLGSSPIQPRPGHTTVSAGGVLNDLSWHYVRVDRYGREANLTLDGYVHRFVLNGDFERLNLENEIFIGGLVGAARKNLAYRHNFRGCIENVIYNRINIAEMAVQRHSRITFEGNVAFRCLDPVPHPINFGGPHNFVQVPGFPRRGRLAVSFRFRTWDLTGLLLFSRLGDGLGHVELMLSEGQVNVSIAQTGRKKLQFAAGYRLNDGFWHEVNFVAQENHAVISIDDVEGAEVRVSYPLLIRTGTSYFFGGCPKPASRWGCHSNQTAFHGCMELLKVDGQLVNLTLVEFRKLGYFAEVLFDTCGITDRCSPNMCEHDGRCYQSWDDFICYCELTGYKGVTCHEPLYKESCEAYRLSGKYSGNYTIDPDGSGPLKPFVVYCDIRENRAWTVVRHDRLWTTRVTGSSMDRPFLGAIQYWNASWEEVSALANASQHCEQWIEFSCYNSRLLNTAGGYPYSFWIGRNEEQHFYWGGSQPGIQRCACGLDQSCIDPALHCNCDADQPQWRTDKGLLTFVDHLPVTQVVIGDTNRSSSEAQFFLRPLRCYGDRNSWNTISFRTGAALRFPPIRANHSLDVSFYFRTSAPSGVFLENMGGPFCQWRRPYVRVELNTSRDVVFAFDIGNGDENLTVHSDDFEFNDDEWHLVRAEINVKQARLRVDHRPWVLRPMPLQTYIWLEYDQPLYVGSAELKRRPFVGCLRAMRLNGVTLNLEGRANASEGTFPNCTGHCTHPRFPCFHGGRCVERYSYYTCDCDLTAFDGPYCNHDIGGFFETGTWMRYNLQSALRSAAQEFSHMLSRPVPGYEPGYIPGYDTPGYVPGYHGPGYRLPDYPRPGRPVPGYRGPVYNVTGEEVSFSFSTSSAPAVLLYVSSFVRDYMAVLIKEDGTLQLRYQLGTSPYVYQLTTRPVTDGQPHSVNITRVYRNLFIQVDYFPLTEQKFSLLVDSQLDSPKALYLGRVMETGVIDPEIQRYNTPGFSGCLSGVRFNNVAPLKTHFRTPRPMTAELAEAMRVQGELSESNCGAMPRLVSEVPPELDPWYLPPDFPYYHDDGWIAILLGFLVAFLLLGLVGMLVLFYLQNHRYKGSYHTNEPKATHDSHPGGKAPLPPSGPAQAPAPTPAPTQVPTPAPAPASGPGPRDQNLPQILEESRSE",binds
2,"Slc12a5 (protein, UniProt Q63633 1-1139) MSRRFTVTSLPPAASAASADPESRRHSVADPRRLPREDVKGDGNPKESSPFINSTDTEKGREYDGRNMALFEEEMDTSPMVSSLLSGLANYTNLPQGSKEHEEAENNEGGKKKPVQAPRMGTFMGVYLPCLQNIFGVILFLRLTWVVGIAGIMESFCMVFICCSCTMLTAISMSAIATNGVVPAGGSYYMISRSLGPEFGGAVGLCFYLGTTFAGAMYILGTIEILLAYLFPAMAIFKAEDASGEAAAMLNNMRVYGTCVLTCMATVVFVGVKYVNKFALVFLGCVILSILAIYAGVIKSAFDPPNFPICLLGNRTLSRHGFDVCAKLAWEGNETVTTRLWGLFCSSRLLNATCDEYFTRNNVTEIQGIPGAASGLIKENLWSSYLTKGVIVERRGMPSVGLADGTPVDMDHPYVFSDMTSYFTLLVGIYFPSVTGIMAGSNRSGDLRDAQKSIPTGTILAIATTSAVYISSVVLFGACIEGVVLRDKFGEAVNGNLVVGTLAWPSPWVIVIGSFFSTCGAGLQSLTGAPRLLQAISRDGIVPFLQVFGHGKANGEPTWALLLTACICEIGILIASLDEVAPILSMFFLMCYMFVNLACAVQTLLRTPNWRPRFRYYHWTLSFLGMSLCLALMFICSWYYALVAMLIAGLIYKYIEYRGAEKEWGDGIRGLSLSAARYALLRLEEGPPHTKNWRPQLLVLVRVDQDQNVVHPQLLSLTSQLKAGKGLTIVGSVLEGTFLDNHPQAQRAEESIRRLMEAEKVKGFCQVVISSNLRDGVSHLIQSGGLGGLQHNTVLVGWPRNWRQKEDHQTWRNFIELVRETTAGHLALLVTKNVSMFPGNPERFSEGSIDVWWIVHDGGMLMLLPFLLRHHKVWRKCKMRIFTVAQMDDNSIQMKKDLTTFLYHLRITAEVEVVEMHESDISAYTYEKTLVMEQRSQILKQMHLTKNEREREIQSITDESRGSIRRKNPANTRLRLNVPEETACDNEEKPEEEVQLIHDQSAPSCPSSSPSPGEEPEGEGETDPEKVHLTWTKDKSAAQKNKGPSPVSSEGIKDFFSMKPEWENLNQSNVRRMHTAVRLNEVIVNKSRDAKLVLLNMPGPPRNRNGDENYMEFLEVLTEQLDRVMLVRGGGREVITIYS",binds
3,"Cnp (protein, UniProt P13233 1-420) MSTSFARKSHTFLPKIFFRKMSSSGAKDKPELQFPFLQDEDTVATLHECKTLFILRGLPGSGKSTLARLIVEKYHNGTKMVSADAYKIIPGSRADFSEEYKRLDEDLAGYCRRDIRVLVLDDTNHERERLDQLFEMADQYQYQVVLVEPKTAWRLDCAQLKEKNQWQLSLDDLKKLKPGLEKDFLPLYFGWFLTKKSSETLRKAGQVFLEELGNHKAFKKELRHFISGDEPKEKLDLVSYFGKRPPGVLHCTTKFCDYGKATGAEEYAQQDVVRRSYGKAFKLSISALFVTPKTAGAQVVLNEQELQLWPSDLDKPSSSESLPPGSRAHVTLGCAADVQPVQTGLDLLEILQQVKGGSQGEEVGELPRGKLYSLGKGRWMLSLAKKMEVKAIFTGYYGKGKPVPVHGSRKGGAMQICTII",binds
